According to patent US7351696B2, “Compounds” (Glaxo Group Limited, priority 2002, dated 2008):
Read-outs that look alike come from different tables or passages of the source. Some of these results come from one statement about several compounds together.

Key:
Test in all cases: MIC, microtiter broth serial dilution test
Format in all cases: cell-based
[1] = test system: S. aureus Smith ATCC 13709
[2] = test system: erythromycin resistant strains of Streptococcus pyogenes
[3] = test system: M. catarrhalis ATCC 23246
[4] = test system: H. influenzae ATCC 49247
[5] = test system: S. pneumoniae SP030; details: S. pneumoniae SPO30
[6] = test system: S. pyogenes 3565
[7] = test system: E. faecalis ATCC 29212
[8] = test system: erythromycin resistant strains of Streptococcus pneumoniae

Row | SMILES | MIC [1] | MIC [2] | MIC [3] | MIC [4] | MIC [5] | MIC [6] | MIC [7] | MIC [8] | MIC ([1]; S. aureus Smith ATCC 13709) | MIC ([6]; S. pyogenes 3565) | MIC ([7]; E. faecalis ATCC 29212)
1 | CCC1OC(=O)C(C)C(OC2CC(C)(OC)C(OC(=O)CCNCCNc3cc4c(=O)c(C(=O)O)cn(C5CC5)c4cc3Cl)C(C)O2)C(C)C(OC2OC(C)CC(N(C)C)C2O)C(C)(O)CC(C)/C(=N\OC)C(C)C(OCOCCN(C)C)C1(C)O (stereo not shown) [Example 1, 4″-O-[3-[[2-[(3-Carboxy-7-chloro-1-cyclopropyl-1,4-dihydro-4-oxo-6-quinolinyl)amino]ethyl]amino]propionyl]-11-O-(2-dimethylaminoethoxymethyl)-(9E)-methoximino erythromycin A] | ≤ 1 µg/mL | < 0.25 µg/mL | ≤ 2 µg/mL | ≤ 2 µg/mL | ≤ 1 µg/mL | ≤ 1 µg/mL | ≤ 1 µg/mL | < 0.25 µg/mL |  |  | 
2 | CCC1OC(=O)C(C)C(OC2CC(C)(OC)C(OC(=O)CCNCCNc3cc4c(=O)c(C(=O)O)cn(C5CC5)c4cc3Cl)C(C)O2)C(C)C(OC2OC(C)CC(N(C)C)C2O)C(C)(O)CC(C)C(=NOC)C(C)C2OC(=O)OC12C (stereo not shown) [Example 3, 4″-O-[3-[[2-[(3-Carboxy-7-chloro-1-cyclopropyl-1,4-dihydro-4-oxo-6-quinolinyl)amino]ethyl]amino]propionyl]-11,12-carbonate-(9E)-methoximino erythromycin A] |  | < 0.25 µg/mL | ≤ 2 µg/mL | ≤ 2 µg/mL | ≤ 1 µg/mL |  |  | < 0.25 µg/mL | ≤ 1 µg/mL | ≤ 1 µg/mL | ≤ 1 µg/mL
3 | CCOCON=C1C(C)CC(C)(O)C(OC2OC(C)CC(N(C)C)C2O)C(C)C(OC2CC(C)(OC)C(OC(=O)CCNCCNc3cc4c(=O)c(C(=O)O)cn(C5CC5)c4cc3Cl)C(C)O2)C(C)C(=O)OC(CC)C2(C)OC(=O)OC2C1C (stereo not shown) [Example 8, 4″-O-[3-[[2-[(3-Carboxy-7-chloro-1-cyclopropyl-1,4-dihydro-4-oxo-6-quinolinyl)amino]ethyl]amino]propionyl]-11,12-carbonate-(9E)-O-(ethoxymethyl)oximino erythromycin A] |  | < 0.25 µg/mL |  |  | ≤ 1 µg/mL |  |  | < 0.25 µg/mL | ≤ 1 µg/mL | ≤ 1 µg/mL | ≤ 1 µg/mL
